Reference: the supplement of paper PMC4604168 (melanoma cell lines)
This is one part of the list. Repeats are few or missing, and single values can be far off.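 The apoptosis fraction was the count of cleaved-PARP antibody-stained nuclei relative to all DNA-stained nuclei, imaged in 1,536-well plates. Screening doses were set so most cells survived, and baseline and induced cleaved-PARP levels vary greatly across cell lines.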

Key:
Assay in all cases: cleaved PARP positive nuclei fraction relative to DMSO control; melanoma cells; higher = more apoptosis
Conditions in all cases: library dose: low library concentration; 72 h
501Mel = tested on: 501Mel
A101D = tested on: A101D
A2058 = tested on: A2058
A375 = tested on: A375
C32 = tested on: C32
CBRC013 = tested on: CBRC013 (line from a melanoma biopsy)
CBRC014 = tested on: CBRC014 (line from a melanoma biopsy)
CBRC016 = tested on: CBRC016 (line from a melanoma biopsy)
CBRC017 = tested on: CBRC017 (line from a melanoma biopsy)
CBRC034 = tested on: CBRC034 (line from a melanoma biopsy)
COLO792 = tested on: COLO792
COLO800 = tested on: COLO800
COLO829 = tested on: COLO829
G361 = tested on: G361
IPC-298 = tested on: IPC-298
IST-MEL1 = tested on: IST-MEL1
LB2518-MEL = tested on: LB2518-MEL
LOXIMVI = tested on: LOXIMVI

SMILES | cleaved PARP positive nuclei fraction (501Mel) [%] | cleaved PARP positive nuclei fraction (A101D) [%] | cleaved PARP positive nuclei fraction (A2058) [%] | cleaved PARP positive nuclei fraction (A375) [%] | cleaved PARP positive nuclei fraction (C32) [%] | cleaved PARP positive nuclei fraction (CBRC013) [%] | cleaved PARP positive nuclei fraction (CBRC014) [%] | cleaved PARP positive nuclei fraction (CBRC016) [%] | cleaved PARP positive nuclei fraction (CBRC017) [%] | cleaved PARP positive nuclei fraction (CBRC034) [%] | cleaved PARP positive nuclei fraction (COLO792) [%] | cleaved PARP positive nuclei fraction (COLO800) [%] | cleaved PARP positive nuclei fraction (COLO829) [%] | cleaved PARP positive nuclei fraction (G361) [%] | cleaved PARP positive nuclei fraction (IPC-298) [%] | cleaved PARP positive nuclei fraction (IST-MEL1) [%] | cleaved PARP positive nuclei fraction (LB2518-MEL) [%] | cleaved PARP positive nuclei fraction (LOXIMVI) [%]
Cc1nc(Nc2ncc(C(=O)Nc3c(C)cccc3Cl)s2)cc(N2CCN(CCO)CC2)n1 [dasatanib] + COc1ccc2c(c1)CCC1C2CCC2(C)C(NCCCCCCN3C(=O)C=CC3=O)CCC12 [U73122] (first compound 0.004 µM, partner dose 0.4 µM) | 51.6 | 66.8 | 72.2 | 221 | 407 | 128 | 116 | 143 | 73.4 | 143 | 178 | 294 | 144 | 161 | 107 | 49.8 | 97.5 | 29.9
C[C@]1(c2nc3c(C(N)=O)cccc3[nH]2)CCCN1 [Veliparib] + CCN(CC)CCCCNc1ncc2cc(-c3cc(OC)cc(OC)c3)c(NC(=O)NC(C)(C)C)nc2n1 [PD173074] (first compound 1.4 µM, partner dose 0.1 µM) | 72.1 | 96.3 | 109 | 99.4 | 127 | 127 | 98.6 | 66.2 | 90.1 | 86.2 | 42.3 | 116 | 41 | 106 | 85.7 | 91.7 | 91.5 | 26.9
O=C(Nc1cccc(Cl)c1)Nc1ncc(CCNc2ncnc3ccsc23)s1 + N#Cc1c(O)c2c(-c3ccc(-c4ccccc4O)cc3)csc2[nH]c1=O [A769662] (first compound 0.0008 µM, partner dose 2 µM) | 68.4 | 113 | 159 | 153 | 368 | 177 | 84.8 | 66.8 | 70 | 85.4 | 159 | 111 | 68.7 | 109 | 41.3 | 60.2 | 160 | 71.6
CO[C@@H]1[C@H](N(C)C(=O)c2ccccc2)C[C@H]2O[C@]1(C)n1c3ccccc3c3c4c(c5c6ccccc6n2c5c31)C(=O)NC4 [Midostaurin] + COc1ccc2c(c1)CCC1C2CCC2(C)C(NCCCCCCN3C(=O)C=CC3=O)CCC12 [U73122] (first compound 0.08 µM, partner dose 0.4 µM) | 90.9 | 94.3 | 103 | 55.4 | 112 | 96.3 | 108 | 96.4 | 88.3 | 57 | 95.9 | 37.4 | 154 | 233 | 79.9 | 45.7 | 72.9 | 123
CC1(C)NC(=O)N(c2ccc([N+](=O)[O-])c(C(F)(F)F)c2)C1=O [nilutamide] + COc1cc(N2CCC(N3CCN(C)CC3)CC2)ccc1Nc1ncc(Cl)c(Nc2ccccc2S(=O)(=O)C(C)C)n1 [NVP-TAE684] (first compound 1 µM, partner dose 0.08 µM) | 72.7 | 181 | 99 | 77.8 | 137 | 293 | 87.6 | 90.9 | 89.7 | 61.4 | 76.2 | 167 | 226 | 108 | 38.5 | 124 | 73.1 | 84.1
Cc1nc(Nc2ncc(C(=O)Nc3c(C)cccc3Cl)s2)cc(N2CCN(CCO)CC2)n1 [dasatanib] + O=S(=O)(c1ccccc1)N(CC(F)(F)F)c1ccc(C(O)(C(F)(F)F)C(F)(F)F)cc1 [T0901317] (first compound 0.004 µM, partner dose 1.4 µM) | 98.4 | 107 | 138 | 164 | 248 | 375 | 175 | 73.5 | 90.6 | 78.1 | 104 | 100 | 156 | 148 | 104 | 99.8 | 90.7 | 67.1
COCC[n+]1c2c(n(Cc3cnccn3)c1C)C(=O)c1ccccc1C2=O + COC(=O)c1sccc1S(=O)(=O)Nc1ccc(Nc2ccccc2)cc1OC [GSK0660] (first compound 0.0004 µM, partner dose 1 µM) | 47.2 | 179 | 374 | 351 | 56.9 | 302 | 99.7 | 109 | 305 | 44.5 | 96.9 | 252 | 121 | 97 | 151 | 117 | 278 | 80
OCCn1cc(-c2cnc3nnn(Cc4ccc5ncccc5c4)c3n2)cn1 + N#Cc1c(O)c2c(-c3ccc(-c4ccccc4O)cc3)csc2[nH]c1=O [A769662] (first compound 1 µM, partner dose 2 µM) | 101 | 79 | 153 | 103 | 60.8 | 307 | 88.9 | 60.6 | 97.7 | 188 | 124 | 126 | 103 | 33 | 43.1 | 179 | 88 | 49.7
